Results are given in words; binding and its absence hold for the method and conditions named. In cells and extracts the contact can be indirect. Sequences can lack the tags named with a protein.
Target: T1, STAM-binding protein (STAMBP) (human (endogenous in PANC-1, BxPC-3, SW1990)) (UniProt O95630)
T1 sequence: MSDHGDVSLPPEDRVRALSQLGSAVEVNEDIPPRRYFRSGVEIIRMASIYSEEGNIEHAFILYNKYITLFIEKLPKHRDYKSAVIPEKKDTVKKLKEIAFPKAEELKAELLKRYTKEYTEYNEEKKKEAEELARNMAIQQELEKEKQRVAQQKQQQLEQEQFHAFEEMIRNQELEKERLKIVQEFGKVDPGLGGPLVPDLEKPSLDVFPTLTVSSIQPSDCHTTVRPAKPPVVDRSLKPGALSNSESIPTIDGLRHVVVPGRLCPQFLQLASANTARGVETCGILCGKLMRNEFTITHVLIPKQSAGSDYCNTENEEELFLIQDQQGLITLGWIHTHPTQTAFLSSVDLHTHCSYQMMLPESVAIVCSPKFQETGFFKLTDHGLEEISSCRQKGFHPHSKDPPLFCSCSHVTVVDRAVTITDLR
Assay: co-IP; endogenous proteins in pancreatic cancer cell lysates; lysates incubated with IgG or the specified primary antibody at 4 °C overnight, protein A/G magnetic beads; immunoprecipitates blotted

By UniProt entry, the sequences of proteins in these tests, tags left out. Residues count along the entry.
UniProt Q15118, residues 29-436: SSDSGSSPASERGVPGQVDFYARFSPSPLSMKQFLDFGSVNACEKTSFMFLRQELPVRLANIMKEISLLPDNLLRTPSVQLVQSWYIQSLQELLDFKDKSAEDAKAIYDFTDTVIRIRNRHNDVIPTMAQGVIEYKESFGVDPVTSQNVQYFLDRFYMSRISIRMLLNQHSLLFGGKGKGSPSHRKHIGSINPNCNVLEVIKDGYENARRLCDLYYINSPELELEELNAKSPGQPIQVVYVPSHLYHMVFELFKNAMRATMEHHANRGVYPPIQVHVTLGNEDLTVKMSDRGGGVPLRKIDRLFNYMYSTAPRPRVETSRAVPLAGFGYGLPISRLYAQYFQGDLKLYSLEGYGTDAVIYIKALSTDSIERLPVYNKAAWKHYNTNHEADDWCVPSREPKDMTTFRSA

binding: no binding
Substance: PDK1 (from UniProt Q15118 29-436) (enzyme)
